According to the supplement of paper PMC7661543:
± gives the standard deviation of the averaged measurements. Differences between knockout arms are mostly noise.

Tested on: BT-20
Assay: relative cell number vs DMSO control (72 h) (% of DMSO); higher = less growth inhibition (more cells)
Method: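 QMAP-Seq: a pool of 5 breast cancer cell lines (ZR-75-1, SKBR3, HCC-38, MDA-MB-231, BT-20), each carrying 12 doxycycline-inducible Cas9 sgRNA perturbations (11 knockouts plus non-targeting sgNT), was treated with compounds for 72 h at four 10-fold doses (10 nM-10 uM or 1 nM-1 uM range). Barcodes were amplified and sequenced, and cell number was interpolated from 293T spike-in standard curves. The result is expressed as % of the median of DMSO wells. Two biological replicates.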

[1] = sgRNA knockout: sgATF3, 1000 nM
[2] = sgRNA knockout: sgATF3, 10000 nM
[3] = sgRNA knockout: sgATF4, 1000 nM
[4] = sgRNA knockout: sgATF4, 10000 nM
[5] = sgRNA knockout: sgATF6, 1000 nM
[6] = sgRNA knockout: sgATF6, 10000 nM
[7] = sgRNA knockout: sgATG7, 1000 nM
[8] = sgRNA knockout: sgATG7, 10000 nM
[9] = sgRNA knockout: sgERN1, 1000 nM
[10] = sgRNA knockout: sgERN1, 10000 nM
[11] = sgRNA knockout: sgHSF1, 1000 nM
[12] = sgRNA knockout: sgHSF1, 10000 nM
[13] = sgRNA knockout: sgHSF2, 1000 nM
[14] = sgRNA knockout: sgHSF2, 10000 nM
[15] = sgRNA knockout: sgKEAP1, 100 nM
[16] = sgRNA knockout: sgKEAP1, 1000 nM
[17] = sgRNA knockout: sgKEAP1, 10000 nM
[18] = sgRNA knockout: sgNFE2L2, 10 nM
[19] = sgRNA knockout: sgNFE2L2, 100 nM
[20] = sgRNA knockout: sgNFE2L2, 1000 nM
[21] = sgRNA knockout: sgNFE2L2, 10000 nM
[22] = sgRNA knockout: sgSLC35F2, 10 nM
[23] = sgRNA knockout: sgSLC35F2, 100 nM
[24] = sgRNA knockout: sgSLC35F2, 1000 nM
[25] = sgRNA knockout: sgSLC35F2, 10000 nM
[26] = sgRNA knockout: sgXBP1, 1000 nM
[27] = sgRNA knockout: sgXBP1, 10000 nM

SMILES: COc1cc2nccc(Oc3ccc(NC(=O)C4(C(=O)Nc5ccc(F)cc5)CC4)cc3)c2cc1OC [Cabozantinib]
- relative cell number (sgRNA knockout: sgATF3, 10 nM): 99.8 ± 4.8
- relative cell number (sgRNA knockout: sgATF3, 100 nM): 98.3 ± 10
- relative cell number [1]: 101 ± 1.9
- relative cell number [2]: 58.9 ± 3.8
- relative cell number (sgRNA knockout: sgATF4, 10 nM): 99.9 ± 7.3
- relative cell number (sgRNA knockout: sgATF4, 100 nM): 111 ± 11
- relative cell number [3]: 90.9 ± 8.6
- relative cell number [4]: 58.5 ± 9.1
- relative cell number (sgRNA knockout: sgATF6, 10 nM): 103 ± 8.7
- relative cell number (sgRNA knockout: sgATF6, 100 nM): 81.444 ± 0.04
- relative cell number [5]: 82.6 ± 20
- relative cell number [6]: 55.5 ± 3.1
- relative cell number (sgRNA knockout: sgATG7, 10 nM): 114 ± 5.1
- relative cell number (sgRNA knockout: sgATG7, 100 nM): 93 ± 11
- relative cell number [7]: 110 ± 8.6
- relative cell number [8]: 61 ± 8.4
- relative cell number (sgRNA knockout: sgERN1, 10 nM): 95.2 ± 4
- relative cell number (sgRNA knockout: sgERN1, 100 nM): 90.9 ± 1.6
- relative cell number [9]: 106 ± 26
- relative cell number [10]: 59.4 ± 21
- relative cell number (sgRNA knockout: sgHSF1, 10 nM): 107 ± 5.7
- relative cell number (sgRNA knockout: sgHSF1, 100 nM): 105 ± 22
- relative cell number [11]: 88.3 ± 14
- relative cell number [12]: 58.2 ± 16
- relative cell number (sgRNA knockout: sgHSF2, 10 nM): 95.9 ± 11
- relative cell number (sgRNA knockout: sgHSF2, 100 nM): 103 ± 5.8
- relative cell number [13]: 95.9 ± 17
- relative cell number [14]: 62.2 ± 17
- relative cell number (sgRNA knockout: sgKEAP1, 10 nM): 94.9 ± 14
- relative cell number [15]: 90.3 ± 3.9
- relative cell number [16]: 88.5 ± 2.2
- relative cell number [17]: 56.8 ± 3.9
- relative cell number [18]: 121 ± 2.6
- relative cell number [19]: 99.4 ± 28
- relative cell number [20]: 116 ± 20
- relative cell number [21]: 56.4 ± 4.9
- relative cell number [22]: 109 ± 9.8
- relative cell number [23]: 101 ± 9.4
- relative cell number [24]: 94 ± 12
- relative cell number [25]: 68 ± 10
- relative cell number (sgRNA knockout: sgXBP1, 10 nM): 93.5 ± 1.1
- relative cell number (sgRNA knockout: sgXBP1, 100 nM): 106 ± 1.3
- relative cell number [26]: 102 ± 14
- relative cell number [27]: 54.9 ± 22

SMILES: CC(C)C[C@H](NC(=O)[C@H](CCc1ccccc1)NC(=O)CN1CCOCC1)C(=O)N[C@@H](Cc1ccccc1)C(=O)N[C@@H](CC(C)C)C(=O)[C@@]1(C)CO1 [Carfilzomib]
- relative cell number (sgRNA knockout: sgATF3, 1 nM): 88.3 ± 4.2
- relative cell number (sgRNA knockout: sgATF3, 10 nM): 72 ± 6.8
- relative cell number (sgRNA knockout: sgATF3, 100 nM): 20.8 ± 3
- relative cell number [1]: 14.4 ± 3.8
- relative cell number (sgRNA knockout: sgATF4, 1 nM): 92.5 ± 8.9
- relative cell number (sgRNA knockout: sgATF4, 10 nM): 80.8 ± 5.8
- relative cell number (sgRNA knockout: sgATF4, 100 nM): 24.3 ± 9.4
- relative cell number [3]: 9.44 ± 6.9
- relative cell number (sgRNA knockout: sgATF6, 1 nM): 80.6 ± 5.5
- relative cell number (sgRNA knockout: sgATF6, 10 nM): 78.3 ± 13
- relative cell number (sgRNA knockout: sgATF6, 100 nM): 20.1 ± 5.1
- relative cell number [5]: 14.5 ± 4.3
- relative cell number (sgRNA knockout: sgATG7, 1 nM): 86.6 ± 1.3
- relative cell number (sgRNA knockout: sgATG7, 10 nM): 85.1 ± 4.8
- relative cell number (sgRNA knockout: sgATG7, 100 nM): 24.7 ± 3.6
- relative cell number [7]: 13.5 ± 6.8
- relative cell number (sgRNA knockout: sgERN1, 1 nM): 88.3 ± 13
- relative cell number (sgRNA knockout: sgERN1, 10 nM): 77 ± 8.5
- relative cell number (sgRNA knockout: sgERN1, 100 nM): 24.4 ± 1
- relative cell number [9]: 12.6 ± 6.4
- relative cell number (sgRNA knockout: sgHSF1, 1 nM): 76.7 ± 8.9
- relative cell number (sgRNA knockout: sgHSF1, 10 nM): 81.3 ± 4.2
- relative cell number (sgRNA knockout: sgHSF1, 100 nM): 19 ± 4.3
- relative cell number [11]: 9.71 ± 5.1
- relative cell number (sgRNA knockout: sgHSF2, 1 nM): 92.09 ± 0.43
- relative cell number (sgRNA knockout: sgHSF2, 10 nM): 82.5 ± 19
- relative cell number (sgRNA knockout: sgHSF2, 100 nM): 21.8 ± 3.3
- relative cell number [13]: 8.05 ± 0.48
- relative cell number (sgRNA knockout: sgKEAP1, 1 nM): 94.8 ± 4.1
- relative cell number (sgRNA knockout: sgKEAP1, 10 nM): 79.7 ± 7
- relative cell number [15]: 22.5 ± 3.3
- relative cell number [16]: 13.7 ± 2.6
- relative cell number (sgRNA knockout: sgNFE2L2, 1 nM): 72.2 ± 2.9
- relative cell number [18]: 82.7 ± 22
- relative cell number [19]: 17.1 ± 3.7
- relative cell number [20]: 9.61 ± 4.5
- relative cell number (sgRNA knockout: sgSLC35F2, 1 nM): 71.6 ± 22
- relative cell number [22]: 82.96 ± 0.18
- relative cell number [23]: 19.9 ± 1.6
- relative cell number [24]: 11.1 ± 5.8
- relative cell number (sgRNA knockout: sgXBP1, 1 nM): 88.9 ± 13
- relative cell number (sgRNA knockout: sgXBP1, 10 nM): 82.8 ± 4.2
- relative cell number (sgRNA knockout: sgXBP1, 100 nM): 20 ± 3.9
- relative cell number [26]: 9.92 ± 1.1

SMILES: N.N.[Cl][Pt][Cl] [Cisplatin]
- relative cell number (sgRNA knockout: sgATF3, 10 nM): 104 ± 4.8
- relative cell number (sgRNA knockout: sgATF3, 100 nM): 80.7 ± 7.5
- relative cell number [1]: 119 ± 0.32
- relative cell number [2]: 105.4 ± 1
- relative cell number (sgRNA knockout: sgATF4, 10 nM): 104 ± 19
- relative cell number (sgRNA knockout: sgATF4, 100 nM): 92.7 ± 0.98
- relative cell number [3]: 108 ± 2
- relative cell number [4]: 95.3 ± 4
- relative cell number (sgRNA knockout: sgATF6, 10 nM): 103 ± 16
- relative cell number (sgRNA knockout: sgATF6, 100 nM): 86.2 ± 18
- relative cell number [5]: 94.9 ± 15
- relative cell number [6]: 111 ± 5.8
- relative cell number (sgRNA knockout: sgATG7, 10 nM): 113 ± 9.2
- relative cell number (sgRNA knockout: sgATG7, 100 nM): 88.8 ± 15
- relative cell number [7]: 96.4 ± 10
- relative cell number [8]: 107 ± 22
- relative cell number (sgRNA knockout: sgERN1, 10 nM): 112 ± 11
- relative cell number (sgRNA knockout: sgERN1, 100 nM): 73.91 ± 0.63
- relative cell number [9]: 96.4 ± 10
- relative cell number [10]: 117 ± 5.7
- relative cell number (sgRNA knockout: sgHSF1, 10 nM): 104 ± 5.3
- relative cell number (sgRNA knockout: sgHSF1, 100 nM): 79.3 ± 5.3
- relative cell number [11]: 93.5 ± 2
- relative cell number [12]: 93 ± 6.8
- relative cell number (sgRNA knockout: sgHSF2, 10 nM): 108 ± 17
- relative cell number (sgRNA knockout: sgHSF2, 100 nM): 75.9 ± 19
- relative cell number [13]: 102 ± 10
- relative cell number [14]: 95 ± 4.3
- relative cell number (sgRNA knockout: sgKEAP1, 10 nM): 116 ± 21
- relative cell number [15]: 78.4 ± 7.2
- relative cell number [16]: 93.5 ± 5.5
- relative cell number [17]: 92.3 ± 8.4
- relative cell number [18]: 104 ± 11
- relative cell number [19]: 101 ± 12
- relative cell number [20]: 108 ± 14
- relative cell number [21]: 112 ± 3.9
- relative cell number [22]: 108 ± 28
- relative cell number [23]: 75.8 ± 4.9
- relative cell number [24]: 93.2 ± 20
- relative cell number [25]: 117 ± 15
- relative cell number (sgRNA knockout: sgXBP1, 10 nM): 107 ± 5.5
- relative cell number (sgRNA knockout: sgXBP1, 100 nM): 73.2 ± 3.5
- relative cell number [26]: 103 ± 2.3
- relative cell number [27]: 108 ± 2.5
